# Screen size: about 580,000 compounds; about 6,100 (1.1%) were called active. Inconclusive results, whose numbers are uncertain, are shown with a selection of clear calls. Calls come from the whole dose curve; as a rule, active = well fitted inhibition curve with a large enough effect; inconclusive = small, poorly fitted or top-dose-only effect, or another doubt; inactive = no such curve, though single readings can be large or run the other way. Potencies beside an inconclusive call are fits to weak or partial responses and may not hold up.
# Chains of the proteins cited; added tags and fusions are not shown.
# UniProt P18054, whole entry, looked up: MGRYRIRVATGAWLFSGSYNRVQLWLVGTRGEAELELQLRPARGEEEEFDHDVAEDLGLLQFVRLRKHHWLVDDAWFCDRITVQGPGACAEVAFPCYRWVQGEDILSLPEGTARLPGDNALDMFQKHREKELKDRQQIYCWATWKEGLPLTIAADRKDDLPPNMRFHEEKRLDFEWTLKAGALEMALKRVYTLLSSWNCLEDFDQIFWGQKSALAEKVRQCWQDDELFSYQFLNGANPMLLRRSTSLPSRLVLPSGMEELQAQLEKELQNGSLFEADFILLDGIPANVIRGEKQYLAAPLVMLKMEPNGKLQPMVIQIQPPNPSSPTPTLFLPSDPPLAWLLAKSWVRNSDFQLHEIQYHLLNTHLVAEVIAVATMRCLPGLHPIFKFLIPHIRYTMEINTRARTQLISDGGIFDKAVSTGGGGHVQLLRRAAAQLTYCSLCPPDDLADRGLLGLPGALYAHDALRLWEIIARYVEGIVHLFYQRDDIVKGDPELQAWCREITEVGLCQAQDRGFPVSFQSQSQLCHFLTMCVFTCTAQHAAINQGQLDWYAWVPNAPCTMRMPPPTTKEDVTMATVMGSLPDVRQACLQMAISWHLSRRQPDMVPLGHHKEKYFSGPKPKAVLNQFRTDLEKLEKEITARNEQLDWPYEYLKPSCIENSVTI
# Molecular target: Polyunsaturated fatty acid lipoxygenase ALOX12 (Homo sapiens) (UniProt P18054)
# Test: Primary qHTS assay for inhibitors of human arachidonate 12S-lipoxygenase (ALOX12): Round 2
# Conditions: purified 12hLO, xylenol orange hydroperoxide absorbance; activity change, negative = inhibition: at 108 µM (top of the series) unless noted
# Method in brief: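 Hydroperoxide product was detected by ferrous iron/xylenol orange as the 573 to 405 nm absorbance ratio. Arachidonic acid at 40 uM (final) was turned over for 30 min at room temperature by 150 nM human 12hLO, pH 7.0 Hepes buffer, after 15 min compound preincubation.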
# % is set by controls: 0 for no effect and ±100 for the full control effect; potency is the fitted concentration of half-maximal effect.
SMILES,"activity change, negative = inhibition",Potency
CN(C)C(=O)CO[C@@H]1COCC[C@H]1NC(=O)c1cccc(-n2cccn2)c1,inactive: 23.8%,
Cc1cc(CN2CCN(C(=O)CNC3CC3)CC(C(=O)O)C2)on1 (stereo not given),,"inconclusive: 2.24 µM [inhibitor, full curve, poor fit]"
Cc1ccc2oc(C(=O)NCCCOC3CCCCC3)cc(=O)c2c1,,"inconclusive: 0.282 µM [inhibitor, full curve]"
COc1ccc(Cn2c(C(=O)O)c(CNCc3ccco3)c3ccc(C)cc32)cc1,,"inconclusive: 50.1 µM [inhibitor, partial curve, poor fit]"
Cc1cccc(OCCCCN2CCNCC2)c1,,"inconclusive: 79.4 µM [inhibitor, partial curve, poor fit]"
Cc1ccc2c(CN3CCN(S(=O)(=O)c4ccc(Cl)cc4)CC3)cc(=O)oc2c1C,inactive: 0.946%,
CCN1CCN(CCCN(Cc2ccco2)C(=S)Nc2ccc(C)c(Cl)c2)CC1,inactive: -28.4%,
N#Cc1cccc(CN2C[C@@H](CO)[C@H](c3ccccn3)C2)c1,inactive: 49.6%,
COc1ccc(CN2CCN(CC(O)Cn3c4ccccc4c4ccccc43)CC2)cc1 (stereo not given),,"inconclusive: 89.1 µM [inhibitor, partial curve, poor fit]"
COCCNC(=O)C(NC(=O)CC(C)C)C1CCN(C(=O)c2ccccc2C)CC1 (stereo not given),inactive: 26.3%,
C=CCc1ccccc1OCc1cccc(C(=O)O)c1,inactive: -21.9%,
Cc1cc(C[C@@H]2COC[C@@H]2NC(=O)c2ccc(Oc3ccccc3)o2)on1,inactive: 33.2%,
Cc1ccc(N2C(=O)C(Cl)=C(NCc3ccccc3)C2=O)c(C)c1,,"inconclusive: 25.1 µM [inhibitor, partial curve, poor fit]"
Cc1cc(C)c2cccc(NC(=S)NC(=O)c3ccccc3)c2n1,,"inconclusive: 15.8 µM [inhibitor, full curve, poor fit]"
O=C(NCC1CCCO1)c1cc2cc(Cl)ccc2[nH]1 (stereo not given),,"inconclusive: 89.1 µM [inhibitor, partial curve, poor fit]"
COCC(C)n1c(COc2ccccc2F)nnc1SCC(=O)Nc1oc(C)c2c(C)n[nH]c(=O)c12 (stereo not given),,"inconclusive: 63.1 µM [inhibitor, partial curve, poor fit]"
Cc1cccc(C(=O)N2CCCC(Cc3nncn3C)C2)c1 (stereo not given),inactive: 28.9%,
COCCn1c(SC(C)C(=O)NC2CC2)nnc1-c1cccc(C)c1 (stereo not given),,"inconclusive: 112 µM [inhibitor, partial curve, poor fit]"
CCNc1nc(-c2ccc(S(=O)(=O)N3CCCCCC3)cc2)cs1,,"inconclusive: 15.8 µM [inhibitor, full curve, poor fit]"
O=CN1CCN(C(C(=O)O)c2cn(CCC(=O)O)c3cc(Br)ccc23)CC1 (stereo not given),inactive: -6.71%,
O=C(Nc1nc2c(s1)CCC2)C1CC(=O)N(c2n[nH]c3ccccc23)C1 (stereo not given),,"inconclusive: 50.1 µM [inhibitor, partial curve, poor fit]"
Nc1nc(Nc2ccc(F)cc2)sc1C(=O)c1ccc(Cl)cc1,inactive: -26.2%,
C[C@@H](CN1CCC(Cc2ccccc2)CC1)[C@@H](O)c1ccc(O)cc1,,"inconclusive: 44.7 µM [inhibitor, partial curve, poor fit]"

# Exported tab-delimited: 4 of the compounds above.
SMILES	activity change, negative = inhibition	Potency
COc1ccc(CN2CCN(CC(O)Cn3c4ccccc4c4ccccc43)CC2)cc1 (stereo not given)		inconclusive: 89.1 µM [inhibitor, partial curve, poor fit]
Cc1cc(C[C@@H]2COC[C@@H]2NC(=O)c2ccc(Oc3ccccc3)o2)on1	inactive: 33.2%	
Cc1ccc(N2C(=O)C(Cl)=C(NCc3ccccc3)C2=O)c(C)c1		inconclusive: 25.1 µM [inhibitor, partial curve, poor fit]
COCC(C)n1c(COc2ccccc2F)nnc1SCC(=O)Nc1oc(C)c2c(C)n[nH]c(=O)c12 (stereo not given)		inconclusive: 63.1 µM [inhibitor, partial curve, poor fit]

# Next structures.

SMILES,"activity change, negative = inhibition",Potency
O=C(NCc1ccc(F)cc1)c1cccc(S(=O)(=O)Nc2ccc3c(c2)OCO3)c1,,"inconclusive: 35.5 µM [inhibitor, partial curve, poor fit]"
C=CCn1c(C(C)n2c(-c3cnccn3)nc3ccccc32)nc2ccccc21 (stereo not given),inactive: -10.5%,
Cc1ccc(C(=O)C(C)OC(=O)c2cc(=O)[nH]c3ccccc23)cc1 (stereo not given),,"inconclusive: 89.1 µM [inhibitor, single point]"
COc1ccc(Nc2nc(C)c(NC(=O)c3cccc(C)c3)c(Nc3ccc(OC)cc3)n2)cc1,,active: 35.5 µM
C=CCN1C(=O)c2ccccc2N2C(=O)CCC12C(=O)OCc1cc(=O)oc2cc(C)c(C)cc12 (stereo not given),,"inconclusive: 10 µM [inhibitor, full curve]"
Clc1ccc(-c2nnc3sc(-c4ccc(Br)o4)nn23)c(Cl)c1,,"inconclusive: 35.5 µM [inhibitor, partial curve]"
O=C1NC2(CCC3(CC2)OCCO3)NN1c1ccccc1,,"inconclusive: 44.7 µM [inhibitor, partial curve, poor fit]"
CN1C(=O)CCCCC1C(=O)NCC1CCN(Cc2cccc(F)c2)CC1 (stereo not given),,"inconclusive: 70.8 µM [inhibitor, partial curve]"
CCCc1cc(C(=O)Nc2c(Cl)cccc2Cl)no1,,"inconclusive: 17.8 µM [inhibitor, full curve]"
N#Cc1c(-c2ccc(Cl)cc2)cc(-c2ccccc2)nc1SCC(=O)O,,active: 11.2 µM
Cc1cccc(C)c1NC(=O)CSc1nnc(Cn2nnc(-c3ccccc3)n2)n1-c1ccccc1,inactive: -2%,
COc1cccc(C(=O)N2N=C(c3ccccc3)CC2(O)C(F)(F)F)c1 (stereo not given),inactive: 2.07%,
O=C(NCc1ccco1)c1ccc(OCC2CCCO2)cc1 (stereo not given),inactive: -17.7%,
Cc1cc(=O)[nH]c(N/N=C/C2=C(N3CCOCC3)C(=C\c3ccc(Cl)cc3)/CC2)n1,,"inconclusive: 39.8 µM [inhibitor, partial curve, poor fit]"
O=C(O)c1cccc(N2C(=O)c3cccc4cccc(c34)C2=O)c1,inactive: 2.27%,
CC/C(=N/Nc1ccccc1)c1cnnc(-c2ccccc2)n1,,"inconclusive: 20 µM [inhibitor, partial curve, poor fit]"
Cc1cc(=O)n2[nH]c(N3C(=O)CCC3=O)nc2n1,,"inconclusive: 28.2 µM [inhibitor, single point]"
N[C@@H](CS(=O)O)C(=O)O,,"inconclusive: 3.98 µM [inhibitor, full curve, poor fit]"
O=C1N[C@H](CCC(=O)N2CCN(CCc3ccccn3)CC2)C(=O)Nc2ccccc21,inactive: -0.231%,
CC(C)N1C(=O)C(CC(=O)NCC2CCN(Cc3ccccc3F)CC2)=C2CCCCC21 (stereo not given),inactive: 10.1%,
CC1(C)Cc2c(sc3nn[nH]c(=O)c23)CO1,,"inconclusive: 50.1 µM [inhibitor, partial curve, poor fit]"
Cc1nc(SCc2coc(-c3ccc(F)cc3)n2)n[nH]1,,"inconclusive: 56.2 µM [inhibitor, single point]"

# Source: PubChem BioAssay AID1671190 (National Center for Advancing Translational Sciences (NCATS), 2021)
